Results as given in publication PMC6238414.

Experiments:
Assay in all cases: co-IP; COS7 cells transiently co-transfected with FLAG-SYCE2 forms and HA-HP1α forms; 500 μg lysate precipitated with anti-FLAG or normal IgG, blotted with anti-HA or anti-FLAG
[1] = molecular target: T1, full-length FLAG-SYCE2, transiently expressed in COS7 cells (human) (UniProt Q6PIF2)
T1 sequence: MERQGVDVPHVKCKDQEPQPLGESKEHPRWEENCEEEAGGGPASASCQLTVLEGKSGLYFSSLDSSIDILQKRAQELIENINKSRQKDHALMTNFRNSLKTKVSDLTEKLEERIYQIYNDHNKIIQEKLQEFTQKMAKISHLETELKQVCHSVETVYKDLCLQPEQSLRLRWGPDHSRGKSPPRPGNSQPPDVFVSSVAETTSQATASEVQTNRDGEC

[2] = molecular target: T2, FLAG-tagged SYCE2-aa 1–88 mutant (human) (UniProt Q6PIF2)
T2 sequence: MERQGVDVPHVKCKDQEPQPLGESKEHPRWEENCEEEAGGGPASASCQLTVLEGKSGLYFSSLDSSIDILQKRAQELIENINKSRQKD

[3] = molecular target: T3, FLAG-tagged SYCE2-aa 88–218 mutant (human) (UniProt Q6PIF2)
T3 sequence: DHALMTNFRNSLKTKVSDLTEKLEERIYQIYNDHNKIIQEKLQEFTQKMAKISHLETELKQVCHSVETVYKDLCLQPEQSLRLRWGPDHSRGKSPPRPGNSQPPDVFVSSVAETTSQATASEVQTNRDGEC

[4] = molecular target: T4, FLAG-tagged deletion mutant of SYCE2 lacking only the PHVKC motif (human) (UniProt Q6PIF2)
T4 sequence: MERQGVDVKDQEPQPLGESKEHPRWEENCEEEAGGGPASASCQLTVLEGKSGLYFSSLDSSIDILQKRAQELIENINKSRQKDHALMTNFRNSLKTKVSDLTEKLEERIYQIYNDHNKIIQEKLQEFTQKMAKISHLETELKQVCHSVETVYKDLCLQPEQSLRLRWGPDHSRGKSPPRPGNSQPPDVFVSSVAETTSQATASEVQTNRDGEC

[5] = molecular target: T5, FLAG-tagged SYCE2-aa 57–218 mutant (human) (UniProt Q6PIF2)
T5 sequence: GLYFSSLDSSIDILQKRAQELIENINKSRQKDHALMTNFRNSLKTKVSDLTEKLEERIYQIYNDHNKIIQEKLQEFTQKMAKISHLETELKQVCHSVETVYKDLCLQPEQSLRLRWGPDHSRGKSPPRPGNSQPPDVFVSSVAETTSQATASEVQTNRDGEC

Substance | binding [1] | binding [2] | binding [3] | binding [4] | binding [5]
HA-tagged deletion mutant of HP1α containing only the chromoshadow domain (human (cDNA of MCF7 cells)) (domain or fragment) | binds | binds | no binding | binds | no binding
HA-tagged deletion mutant of HP1α lacking the chromodomain (human (cDNA of MCF7 cells)) (domain or fragment) | binds |  |  |  | 
HA-tagged deletion mutant of HP1α lacking the chromoshadow domain (human (cDNA of MCF7 cells)) (domain or fragment) | no binding |  |  |  | 

No constants are given. Whether binding was seen depends on the method and setting. In cells and extracts the contact can be indirect. For some of these results: Binding can be weak; no strength is given. Tags and fused reporters may be left off the sequences shown.
